Source: publication PMC8193260
These are yes or no findings as the source states them, for the method shown. A result given as binding can be weak or reduced; the word gives no strength.

Biological target: recombinant GAP1
Test: ELISA; competitive ELISA with recombinant livin, GAP1 and Ras; GAP1 pre-exposed to livin at indicated concentrations, then binding between Ras and GAP1 read; both purified

B1: recombinant livin (protein, UniProt Q96CA5 1-298)
chain: MGPKDSAKCLHRGPQPSHWAAGDGPTQERCGPRSLGSPVLGLDTCRAWDHVDGQILGQLRPLTEEEEEEGAGATLSRGPAFPGMGSEELRLASFYDWPLTAEVPPELLAAAGFFHTGHQDKVRCFFCYGGLQSWKRGDDPWTEHAKWFPSCQFLLRSKGRDFVHSVQETHSQLLGSWDPWEEPEDAAPVAPSVPASGYPELPTPRREVQSESAQEPGGVSPAEAQRAWWVLEPPGARDVEAQLRRLQEERTCKVCLDRAVSIVFVPCGHLVCAECAPGLQLCPICRAPVRSRVRTFLS
With B1 the binding was “binds”.
